The source of these data is the supplement of paper PMC11732987, “Enantioselective OTUD7B fragment discovery through chemoproteomics screening and high-throughput optimisation” (Communications Chemistry, 2025).

Protein sequences, listed by entry. Tags and fused reporters are not part of them. Lines headed by an entry give the natural chain unless they say otherwise; changes in a name come on top. Residues count along the entry.
UniProt P41223: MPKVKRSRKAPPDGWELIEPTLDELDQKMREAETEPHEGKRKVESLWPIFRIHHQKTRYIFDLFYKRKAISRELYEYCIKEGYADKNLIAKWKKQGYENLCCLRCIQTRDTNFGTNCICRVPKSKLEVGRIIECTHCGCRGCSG
UniProt Q96N11, whole entry, looked up: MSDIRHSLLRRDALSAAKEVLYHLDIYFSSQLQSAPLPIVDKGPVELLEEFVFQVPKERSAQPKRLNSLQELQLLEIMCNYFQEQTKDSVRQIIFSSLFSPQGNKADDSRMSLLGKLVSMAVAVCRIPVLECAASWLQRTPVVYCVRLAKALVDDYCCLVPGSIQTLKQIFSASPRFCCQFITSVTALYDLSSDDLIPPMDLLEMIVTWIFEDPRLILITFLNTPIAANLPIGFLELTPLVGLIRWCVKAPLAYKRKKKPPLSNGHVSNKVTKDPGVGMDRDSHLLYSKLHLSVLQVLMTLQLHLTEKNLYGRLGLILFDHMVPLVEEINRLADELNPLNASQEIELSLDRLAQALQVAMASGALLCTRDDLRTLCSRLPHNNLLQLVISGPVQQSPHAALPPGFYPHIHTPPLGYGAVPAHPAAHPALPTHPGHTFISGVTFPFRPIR
UniProt Q6PJG6: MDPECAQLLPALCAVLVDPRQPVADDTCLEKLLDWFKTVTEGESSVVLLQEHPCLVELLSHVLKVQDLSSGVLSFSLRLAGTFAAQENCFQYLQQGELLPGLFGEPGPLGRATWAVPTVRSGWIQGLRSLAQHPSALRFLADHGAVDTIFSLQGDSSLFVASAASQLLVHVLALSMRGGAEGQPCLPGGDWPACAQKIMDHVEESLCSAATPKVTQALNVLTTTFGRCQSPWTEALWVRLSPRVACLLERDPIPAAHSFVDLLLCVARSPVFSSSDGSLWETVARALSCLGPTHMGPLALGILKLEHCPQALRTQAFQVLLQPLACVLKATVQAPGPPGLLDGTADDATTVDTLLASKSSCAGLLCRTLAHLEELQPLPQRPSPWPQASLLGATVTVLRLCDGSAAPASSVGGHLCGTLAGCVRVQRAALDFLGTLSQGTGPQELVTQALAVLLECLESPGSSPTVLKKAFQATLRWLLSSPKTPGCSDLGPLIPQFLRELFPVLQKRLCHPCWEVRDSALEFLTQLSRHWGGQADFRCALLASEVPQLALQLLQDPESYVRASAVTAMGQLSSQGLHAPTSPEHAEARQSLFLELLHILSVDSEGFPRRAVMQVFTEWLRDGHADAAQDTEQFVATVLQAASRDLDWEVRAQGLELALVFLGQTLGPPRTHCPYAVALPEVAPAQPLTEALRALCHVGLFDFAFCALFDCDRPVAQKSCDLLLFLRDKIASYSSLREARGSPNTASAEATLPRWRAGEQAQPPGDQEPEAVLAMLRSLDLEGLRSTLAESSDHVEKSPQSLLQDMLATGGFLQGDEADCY
UniProt Q9Y6J0: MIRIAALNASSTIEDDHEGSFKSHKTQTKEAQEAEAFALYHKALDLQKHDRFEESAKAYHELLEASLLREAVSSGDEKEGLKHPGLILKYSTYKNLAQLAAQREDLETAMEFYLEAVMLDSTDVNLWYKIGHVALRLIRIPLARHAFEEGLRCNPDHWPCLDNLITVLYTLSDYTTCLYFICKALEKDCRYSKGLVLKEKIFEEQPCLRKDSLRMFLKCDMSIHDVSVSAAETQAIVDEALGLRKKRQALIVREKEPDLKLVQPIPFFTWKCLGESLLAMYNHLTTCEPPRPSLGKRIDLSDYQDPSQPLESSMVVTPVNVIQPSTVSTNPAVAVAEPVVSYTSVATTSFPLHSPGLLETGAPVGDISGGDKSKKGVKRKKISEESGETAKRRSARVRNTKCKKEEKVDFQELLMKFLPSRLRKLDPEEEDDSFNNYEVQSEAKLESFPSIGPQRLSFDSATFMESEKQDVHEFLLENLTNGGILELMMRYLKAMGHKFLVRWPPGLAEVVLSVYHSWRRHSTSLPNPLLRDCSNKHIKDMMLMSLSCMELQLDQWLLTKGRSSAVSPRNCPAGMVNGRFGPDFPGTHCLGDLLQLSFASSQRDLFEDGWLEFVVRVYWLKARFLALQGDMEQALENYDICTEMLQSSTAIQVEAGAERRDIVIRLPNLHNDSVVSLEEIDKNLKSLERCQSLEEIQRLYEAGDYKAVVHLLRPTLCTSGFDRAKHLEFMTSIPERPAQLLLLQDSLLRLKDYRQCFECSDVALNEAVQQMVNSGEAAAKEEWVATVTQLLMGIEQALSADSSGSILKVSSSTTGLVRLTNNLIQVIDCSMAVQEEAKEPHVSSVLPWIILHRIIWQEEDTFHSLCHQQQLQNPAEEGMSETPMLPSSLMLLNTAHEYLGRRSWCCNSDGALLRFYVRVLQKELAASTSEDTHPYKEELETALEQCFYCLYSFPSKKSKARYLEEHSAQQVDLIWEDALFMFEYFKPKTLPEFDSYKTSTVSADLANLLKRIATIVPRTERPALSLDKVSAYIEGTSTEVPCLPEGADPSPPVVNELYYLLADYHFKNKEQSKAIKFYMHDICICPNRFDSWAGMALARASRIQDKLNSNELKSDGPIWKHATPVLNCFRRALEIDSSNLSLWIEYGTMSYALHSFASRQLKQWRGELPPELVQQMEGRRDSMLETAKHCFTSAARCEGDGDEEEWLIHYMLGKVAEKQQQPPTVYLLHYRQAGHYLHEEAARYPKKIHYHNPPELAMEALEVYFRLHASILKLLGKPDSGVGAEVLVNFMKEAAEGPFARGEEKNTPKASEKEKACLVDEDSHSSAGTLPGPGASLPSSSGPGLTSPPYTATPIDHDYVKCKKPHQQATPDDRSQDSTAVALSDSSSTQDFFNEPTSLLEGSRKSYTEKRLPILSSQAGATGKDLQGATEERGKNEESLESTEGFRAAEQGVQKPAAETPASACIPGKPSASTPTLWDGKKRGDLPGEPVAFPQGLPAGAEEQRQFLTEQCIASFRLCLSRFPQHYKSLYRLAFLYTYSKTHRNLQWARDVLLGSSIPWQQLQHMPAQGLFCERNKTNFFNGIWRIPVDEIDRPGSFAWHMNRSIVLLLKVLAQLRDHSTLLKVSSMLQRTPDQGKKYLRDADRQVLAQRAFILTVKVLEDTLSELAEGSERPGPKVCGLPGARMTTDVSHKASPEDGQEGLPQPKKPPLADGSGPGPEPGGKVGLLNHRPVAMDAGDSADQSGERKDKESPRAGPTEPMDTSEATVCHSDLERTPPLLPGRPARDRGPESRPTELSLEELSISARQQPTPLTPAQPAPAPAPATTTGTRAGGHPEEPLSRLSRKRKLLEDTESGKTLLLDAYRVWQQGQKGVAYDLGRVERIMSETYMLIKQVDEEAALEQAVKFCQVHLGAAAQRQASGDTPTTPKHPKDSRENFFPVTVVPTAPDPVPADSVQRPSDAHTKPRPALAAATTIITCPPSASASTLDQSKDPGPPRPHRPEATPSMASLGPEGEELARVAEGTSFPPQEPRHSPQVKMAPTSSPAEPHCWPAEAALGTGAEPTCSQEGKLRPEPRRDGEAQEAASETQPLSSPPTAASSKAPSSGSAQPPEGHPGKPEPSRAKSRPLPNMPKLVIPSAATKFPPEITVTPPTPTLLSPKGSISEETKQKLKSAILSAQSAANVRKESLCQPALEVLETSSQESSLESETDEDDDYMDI
UniProt Q8TCD1: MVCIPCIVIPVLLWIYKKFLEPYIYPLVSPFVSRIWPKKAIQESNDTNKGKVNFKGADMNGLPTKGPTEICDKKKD
UniProt O75808: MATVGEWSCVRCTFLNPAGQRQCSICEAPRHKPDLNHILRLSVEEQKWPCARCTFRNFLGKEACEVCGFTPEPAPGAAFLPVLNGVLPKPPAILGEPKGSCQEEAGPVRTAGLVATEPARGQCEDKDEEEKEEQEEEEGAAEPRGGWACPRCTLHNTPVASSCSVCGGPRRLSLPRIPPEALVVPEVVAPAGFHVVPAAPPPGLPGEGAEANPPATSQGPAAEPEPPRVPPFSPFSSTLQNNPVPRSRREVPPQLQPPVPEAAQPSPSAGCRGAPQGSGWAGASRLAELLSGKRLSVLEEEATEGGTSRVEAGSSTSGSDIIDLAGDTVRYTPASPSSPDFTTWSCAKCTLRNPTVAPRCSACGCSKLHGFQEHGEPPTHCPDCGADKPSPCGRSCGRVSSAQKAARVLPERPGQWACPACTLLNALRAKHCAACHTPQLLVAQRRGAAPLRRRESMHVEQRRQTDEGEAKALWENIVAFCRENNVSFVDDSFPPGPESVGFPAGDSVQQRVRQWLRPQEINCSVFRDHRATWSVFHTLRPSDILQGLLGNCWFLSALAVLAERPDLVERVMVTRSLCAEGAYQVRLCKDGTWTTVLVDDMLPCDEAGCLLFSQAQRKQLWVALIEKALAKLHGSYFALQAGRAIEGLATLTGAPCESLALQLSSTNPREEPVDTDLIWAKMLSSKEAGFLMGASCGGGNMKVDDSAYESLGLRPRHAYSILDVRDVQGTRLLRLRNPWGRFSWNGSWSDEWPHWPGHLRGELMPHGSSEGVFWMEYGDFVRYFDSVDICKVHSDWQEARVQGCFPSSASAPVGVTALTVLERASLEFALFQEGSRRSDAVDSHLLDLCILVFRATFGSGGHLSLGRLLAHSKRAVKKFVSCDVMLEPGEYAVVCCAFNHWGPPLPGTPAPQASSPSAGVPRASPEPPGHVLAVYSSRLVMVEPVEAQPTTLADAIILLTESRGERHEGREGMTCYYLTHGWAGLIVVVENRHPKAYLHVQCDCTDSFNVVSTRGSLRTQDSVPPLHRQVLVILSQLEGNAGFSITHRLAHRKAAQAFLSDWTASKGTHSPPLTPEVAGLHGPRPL
UniProt Q8IU85, 175-200: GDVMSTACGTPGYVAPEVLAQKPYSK
UniProt Q14137: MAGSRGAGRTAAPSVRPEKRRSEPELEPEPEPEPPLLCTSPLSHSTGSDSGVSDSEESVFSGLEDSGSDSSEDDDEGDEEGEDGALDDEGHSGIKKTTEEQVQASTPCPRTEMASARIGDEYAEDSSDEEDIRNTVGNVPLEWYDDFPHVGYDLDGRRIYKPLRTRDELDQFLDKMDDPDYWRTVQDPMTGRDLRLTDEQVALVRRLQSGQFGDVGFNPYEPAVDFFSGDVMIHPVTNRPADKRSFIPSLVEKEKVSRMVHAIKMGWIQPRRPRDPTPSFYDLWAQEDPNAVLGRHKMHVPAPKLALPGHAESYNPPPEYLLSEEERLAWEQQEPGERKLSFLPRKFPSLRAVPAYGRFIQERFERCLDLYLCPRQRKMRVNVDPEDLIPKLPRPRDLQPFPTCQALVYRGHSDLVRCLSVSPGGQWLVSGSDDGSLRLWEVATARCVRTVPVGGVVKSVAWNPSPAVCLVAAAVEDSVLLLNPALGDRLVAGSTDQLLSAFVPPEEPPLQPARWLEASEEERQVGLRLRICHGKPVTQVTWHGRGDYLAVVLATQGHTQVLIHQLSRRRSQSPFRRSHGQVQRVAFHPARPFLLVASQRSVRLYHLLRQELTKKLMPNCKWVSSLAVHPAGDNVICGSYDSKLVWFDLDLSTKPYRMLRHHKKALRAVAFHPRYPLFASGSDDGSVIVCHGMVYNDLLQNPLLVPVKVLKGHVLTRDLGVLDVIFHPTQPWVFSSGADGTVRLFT
UniProt P20810: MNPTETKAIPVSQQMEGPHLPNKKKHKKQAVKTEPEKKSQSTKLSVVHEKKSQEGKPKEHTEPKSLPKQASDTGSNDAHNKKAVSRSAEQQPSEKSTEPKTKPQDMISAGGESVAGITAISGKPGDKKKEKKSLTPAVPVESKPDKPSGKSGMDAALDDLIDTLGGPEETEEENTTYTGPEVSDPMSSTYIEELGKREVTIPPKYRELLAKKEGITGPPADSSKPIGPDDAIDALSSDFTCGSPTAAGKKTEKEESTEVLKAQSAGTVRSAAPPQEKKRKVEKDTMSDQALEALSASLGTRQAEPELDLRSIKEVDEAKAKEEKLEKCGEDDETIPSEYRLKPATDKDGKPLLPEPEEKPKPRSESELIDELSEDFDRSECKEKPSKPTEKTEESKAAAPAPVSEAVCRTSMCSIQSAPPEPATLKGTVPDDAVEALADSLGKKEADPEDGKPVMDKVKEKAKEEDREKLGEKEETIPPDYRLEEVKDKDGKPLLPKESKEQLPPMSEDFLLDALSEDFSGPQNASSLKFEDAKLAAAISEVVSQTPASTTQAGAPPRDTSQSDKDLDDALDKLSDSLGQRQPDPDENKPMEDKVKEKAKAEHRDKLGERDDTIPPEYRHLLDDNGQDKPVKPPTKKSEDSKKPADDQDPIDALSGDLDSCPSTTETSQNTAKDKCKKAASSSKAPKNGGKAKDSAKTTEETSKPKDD
UniProt P07738: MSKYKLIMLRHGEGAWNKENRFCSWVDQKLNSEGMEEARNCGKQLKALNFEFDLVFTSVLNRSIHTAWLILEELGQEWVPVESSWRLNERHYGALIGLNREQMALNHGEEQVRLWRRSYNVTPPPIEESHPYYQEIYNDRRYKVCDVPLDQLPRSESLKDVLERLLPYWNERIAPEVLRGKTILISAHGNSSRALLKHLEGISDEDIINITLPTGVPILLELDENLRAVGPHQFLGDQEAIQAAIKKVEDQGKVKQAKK
UniProt Q14012, 168-197: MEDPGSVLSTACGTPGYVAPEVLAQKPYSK

The other results are listed elsewhere or left out. The data scatter; read single values as rough.

Compound in the first test: ClCC(=O)N[C@H]1CCCc2ccccc12
Description: log2 mean competition ratio of IA-DTB cysteine labelling (DMSO/compound) (log2 ratio); higher = stronger cysteine engagement by compound. The conditions noted are these: 50 µM; treatment time: 4 h; cell line lysate: HEK293T. As to the method:
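IA-DTB competitive cysteine chemoproteomics in HEK293T RIPA lysate. Lysates were treated with compound 29 or 30 at 50 or 200 µM for 4 h, then IA-DTB (500 µM, 1 h), trypsin-digested, NeutrAvidin-enriched and analysed by diaPASEF. Competition ratio = intensity DMSO / intensity compound (n=4 treated, n=64 DMSO); binding: mean log2 CR ≥ 1 and p ≤ 0.05 plus QC filters. Target is the cysteine site.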
BUD31 C78 (UniProt P41223): the “log2 mean competition ratio” value was -0.0452.

Turning to CACNA2D2 C1083, the “log2 mean competition ratio” value is -0.292.

Turning to C7orf26 C145 (UniProt Q96N11), the “log2 mean competition ratio” value is 0.0666.

Consider BRAT1 C308 (UniProt Q6PJG6), for which the “log2 mean competition ratio” value is -0.0493.

With CABIN1 C571 (UniProt Q9Y6J0), the “log2 mean competition ratio” value is 0.16.

For the target C18orf32 C71 (UniProt Q8TCD1), the “log2 mean competition ratio” value was -0.0219.

CAPN15 C101 (UniProt O75808): the “log2 mean competition ratio” value was -0.123.

Regarding BRD1 C805, the “log2 mean competition ratio” value is -0.177.

With CARHSP1 C112, the “log2 mean competition ratio” value is -0.398.

With CADM1 C313 (UniProt Q9BY67), the “log2 mean competition ratio” value was -0.00334.

For the target CAMK1D C182 (UniProt Q8IU85), the “log2 mean competition ratio” value was determined as 0.622.

Turning to BOP1 C108 (UniProt Q14137), the “log2 mean competition ratio” value is -0.0814.

On to BRAT1 C246 (UniProt Q6PJG6), for which the “log2 mean competition ratio” value was 0.257.

For CAST C328 (UniProt P20810), the “log2 mean competition ratio” value stood at 0.423.

Take CARS1 C506: the “log2 mean competition ratio” value is -0.0341.

Regarding BRCC3 C228 (UniProt P46736), the “log2 mean competition ratio” value was -0.74.

As for BRAP C110 (UniProt Q7Z569), the “log2 mean competition ratio” value was -0.369.

Turning to BPGM C23 (UniProt P07738), the “log2 mean competition ratio” value was -0.228.

For CAMK1 C179 (UniProt Q14012), the “log2 mean competition ratio” value turned out to be 0.557.

With CARMIL1 C235, the “log2 mean competition ratio” value was -0.211.

Staying with this test, now noted: 200 µM; treatment time: 4 h; cell line lysate: HEK293T.
As to BUD31 C78 (UniProt P41223), the “log2 mean competition ratio” value is -0.167.

For CACNA2D2 C1083, the “log2 mean competition ratio” value was -0.0628.

For C7orf26 C145 (UniProt Q96N11), the “log2 mean competition ratio” value stood at 0.0452.

For BRAT1 C308 (UniProt Q6PJG6), the “log2 mean competition ratio” value was -0.26.

Take CABIN1 C571 (UniProt Q9Y6J0): the “log2 mean competition ratio” value was -0.0264.

As to C18orf32 C71 (UniProt Q8TCD1), the “log2 mean competition ratio” value stood at 0.261.

CAPN15 C101 (UniProt O75808): the “log2 mean competition ratio” value amounted to 0.014.

For BRD1 C805, the “log2 mean competition ratio” value is -0.157.

Take CARHSP1 C112: the “log2 mean competition ratio” value is -0.438.

Turning to CADM1 C313 (UniProt Q9BY67), the “log2 mean competition ratio” value came to 0.164.

On to CAMK1D C182 (UniProt Q8IU85), for which the “log2 mean competition ratio” value was -0.389.

With BOP1 C108 (UniProt Q14137), the “log2 mean competition ratio” value is -0.0236.

Regarding BRAT1 C246 (UniProt Q6PJG6), the “log2 mean competition ratio” value was found to be 0.304.

Regarding CAST C328 (UniProt P20810), the “log2 mean competition ratio” value worked out at 0.151.

For the target CARS1 C506, the “log2 mean competition ratio” value was -0.0369.

For the target BRCC3 C228 (UniProt P46736), the “log2 mean competition ratio” value is -0.06.

BRAP C110 (UniProt Q7Z569): the “log2 mean competition ratio” value was -0.114.

For the target BPGM C23 (UniProt P07738), the “log2 mean competition ratio” value is -0.0159.

CAMK1 C179 (UniProt Q14012): the “log2 mean competition ratio” value worked out at 0.0449.

Regarding CARMIL1 C235, the “log2 mean competition ratio” value is -0.0696.
